Test [1] deals with TLR7 (Homo sapiens, UniProt Q9NYK1). Description: Reporter gene assay, HEK-Blue TLR7 reporter cells (SEAP). Conditions: read-out: EC50 TLR7, overnight, NF-κB activation measured by SEAP, average of quadruplicate. For orientation: In a reporter assay the amount or activity of a reporter protein is the signal.
Test [2] deals with TLR8 (Homo sapiens, UniProt Q9NR97). Kind of test: Reporter gene assay, HEK-Blue TLR8 reporter cells (SEAP). Conditions: read-out: EC50 TLR8, overnight, NF-κB activation measured by SEAP, average of quadruplicate.
The test system of test [3] is PBMCs. Kind of test: PBMC assay, IL-6 release (HTRF). In kind it is cell-based. The following applies: read-out: EC50 IL-6; PBMCs from healthy donors, overnight, IL-6 induction by HTRF; average of quadruplicate.

Sequences of proteins named here, by UniProt entry; tags and fusion partners are left off. Residues count along the entry.
UniProt Q9NYK1, 27-1049 limits assumed: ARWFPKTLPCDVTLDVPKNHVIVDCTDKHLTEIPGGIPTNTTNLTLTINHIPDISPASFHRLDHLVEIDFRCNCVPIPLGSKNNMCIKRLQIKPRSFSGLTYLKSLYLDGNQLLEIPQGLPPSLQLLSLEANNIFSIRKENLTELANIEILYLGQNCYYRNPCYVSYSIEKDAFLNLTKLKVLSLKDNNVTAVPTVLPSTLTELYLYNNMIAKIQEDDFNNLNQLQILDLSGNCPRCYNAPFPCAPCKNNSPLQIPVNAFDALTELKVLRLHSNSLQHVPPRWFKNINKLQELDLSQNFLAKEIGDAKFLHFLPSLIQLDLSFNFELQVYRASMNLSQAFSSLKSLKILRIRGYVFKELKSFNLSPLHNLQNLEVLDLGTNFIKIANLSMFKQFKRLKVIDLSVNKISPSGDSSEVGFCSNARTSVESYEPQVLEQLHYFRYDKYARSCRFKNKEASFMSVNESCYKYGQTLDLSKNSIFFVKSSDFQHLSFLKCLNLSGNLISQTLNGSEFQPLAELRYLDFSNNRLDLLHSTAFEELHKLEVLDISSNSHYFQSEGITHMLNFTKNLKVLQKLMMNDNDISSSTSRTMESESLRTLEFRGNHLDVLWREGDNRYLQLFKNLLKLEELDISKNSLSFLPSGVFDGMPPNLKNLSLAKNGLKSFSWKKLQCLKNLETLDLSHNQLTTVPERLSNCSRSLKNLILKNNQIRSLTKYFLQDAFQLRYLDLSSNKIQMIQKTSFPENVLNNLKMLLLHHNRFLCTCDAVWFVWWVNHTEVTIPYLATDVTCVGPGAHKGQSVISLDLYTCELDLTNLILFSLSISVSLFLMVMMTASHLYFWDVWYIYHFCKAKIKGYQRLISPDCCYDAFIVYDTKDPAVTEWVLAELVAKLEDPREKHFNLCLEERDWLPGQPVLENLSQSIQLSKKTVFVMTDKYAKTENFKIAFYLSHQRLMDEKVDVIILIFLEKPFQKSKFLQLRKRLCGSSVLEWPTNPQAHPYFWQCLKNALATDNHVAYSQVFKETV
UniProt Q9NR97, 27-1041 limits assumed: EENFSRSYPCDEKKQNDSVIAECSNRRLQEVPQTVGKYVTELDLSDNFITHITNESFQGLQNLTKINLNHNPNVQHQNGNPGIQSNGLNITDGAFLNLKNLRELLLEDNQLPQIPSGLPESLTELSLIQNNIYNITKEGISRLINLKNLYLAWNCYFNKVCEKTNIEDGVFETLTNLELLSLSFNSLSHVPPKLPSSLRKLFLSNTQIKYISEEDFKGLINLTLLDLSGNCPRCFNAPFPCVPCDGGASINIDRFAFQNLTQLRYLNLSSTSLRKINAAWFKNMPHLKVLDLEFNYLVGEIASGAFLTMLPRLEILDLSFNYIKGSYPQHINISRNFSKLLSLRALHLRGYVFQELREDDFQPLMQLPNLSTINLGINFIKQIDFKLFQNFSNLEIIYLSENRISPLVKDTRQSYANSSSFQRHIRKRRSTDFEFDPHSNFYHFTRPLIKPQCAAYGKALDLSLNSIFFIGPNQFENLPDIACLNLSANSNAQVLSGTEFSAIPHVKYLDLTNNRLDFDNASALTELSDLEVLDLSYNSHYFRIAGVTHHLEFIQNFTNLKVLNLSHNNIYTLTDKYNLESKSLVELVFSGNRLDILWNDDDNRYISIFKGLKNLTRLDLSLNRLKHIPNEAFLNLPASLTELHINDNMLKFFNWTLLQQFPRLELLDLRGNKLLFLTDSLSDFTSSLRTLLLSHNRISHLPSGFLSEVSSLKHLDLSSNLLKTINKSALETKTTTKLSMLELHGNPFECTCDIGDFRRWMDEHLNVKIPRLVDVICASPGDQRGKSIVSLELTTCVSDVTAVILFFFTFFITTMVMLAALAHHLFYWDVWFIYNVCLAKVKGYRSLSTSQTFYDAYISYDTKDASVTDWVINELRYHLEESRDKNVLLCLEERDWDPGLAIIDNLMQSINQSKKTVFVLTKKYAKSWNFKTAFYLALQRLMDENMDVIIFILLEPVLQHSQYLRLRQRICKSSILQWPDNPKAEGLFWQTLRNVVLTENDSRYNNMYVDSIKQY

The structures given here were assigned with low confidence; some may be wrong.

This passage reports EC50 results from patent US20250179088A9 (ZYMEWORKS BC INC., priority 2020, published 2025).

On to `CCCCc1nc2c(N)nc3ccsc3c2n1Cc1nc(CN2CCC(c3ccncc3)CC2)cs1`, for which the values for the EC50 in test [1], in test [2] and in test [3] were 0.26 µM, over 1 µM and over 1 µM, respectively.
